Measurements reported in PubChem BioAssay AID1224830 (NIAID, 2016)

Purpose: 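Regulators of TLR4 signalling towards TNF-alpha in macrophage-like cells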 (primary screen)
Cell system: human THP-1 monocytic leukaemia cells, TNF dual-luciferase reporter clone, PMA-differentiated to macrophage-like cells
Knock-down reagent: siRNA pool against human genes, 50 nM
Time to read-out: LPS for 4 h, given about 3 days after siRNA transfection
Treatment: bacterial LPS (TLR4 ligand), 10 ng/ml
Read-out: 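Ratio of firefly to renilla light, scaled to the plate median and expressed as a robust z-score per replicate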
Scale: TNF reporter robust z-score: higher = stronger TNF reporter response to LPS
Call rule: 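a well is active when its z-score exceeds 2.8 or falls below -1.5; control wells carry no call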
The deposit covers about 18,000 reagents; this is a random part of them. In the full data, about 2,900 (16%) are marked active. 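Calls are made per well; low scores hint the gene aids the LPS response, high scores that it dampens it.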 Repeated entries: four replicate wells of each siRNA pool.

Target gene | TNF reporter robust z-score | Call
SLC25A11 | 1 | inactive
SLC25A11 | 1.74 | inactive
SLC25A11 | 1.09 | inactive
SLC25A11 | 2.39 | inactive
HSPA6 | -0.32 | inactive
HSPA6 | -0.41 | inactive
HSPA6 | -0.89 | inactive
HSPA6 | -0.9 | inactive
BARX1 | -1.22 | inactive
BARX1 | -1.13 | inactive
BARX1 | -1.3 | inactive
BARX1 | -1.06 | inactive
USP33 | -0.1 | inactive
USP33 | 0.45 | inactive
USP33 | -0.33 | inactive
USP33 | -0.37 | inactive
FOXK2 | -0.12 | inactive
FOXK2 | 0.28 | inactive
FOXK2 | 0.97 | inactive
FOXK2 | 1.11 | inactive
POGZ | -0.9 | inactive
POGZ | -1.19 | inactive
POGZ | 0.82 | inactive
POGZ | -0.95 | inactive
TMX4 | -0.49 | inactive
TMX4 | 0.4 | inactive
TMX4 | 0.53 | inactive
TMX4 | 0.74 | inactive
IHO1 | -1.36 | inactive
IHO1 | -1.69 | active
IHO1 | -1.8 | active
IHO1 | -1.48 | inactive
MLIP | -2.04 | active
MLIP | -1.66 | active
MLIP | -2.14 | active
MLIP | -1.27 | inactive
B3GALT4 | 1.14 | inactive
B3GALT4 | 0.23 | inactive
B3GALT4 | -0.14 | inactive
B3GALT4 | 1.15 | inactive
PSMB1 | -1.48 | inactive
PSMB1 | -1.68 | active
PSMB1 | -1.56 | active
PSMB1 | -2.09 | active
IL18 | -0.76 | inactive
IL18 | -0.11 | inactive
IL18 | 0.37 | inactive
IL18 | 0.46 | inactive
GNB1L | -0.66 | inactive
GNB1L | 0.18 | inactive
GNB1L | -0.58 | inactive
GNB1L | 0.54 | inactive
MBD5 | -1.13 | inactive
MBD5 | -0.6 | inactive
MBD5 | -0.72 | inactive
MBD5 | 0.97 | inactive
COPS6 | -1.83 | active
COPS6 | -1.28 | inactive
COPS6 | -1.39 | inactive
COPS6 | -1.15 | inactive
ARMC7 | -0.3 | inactive
ARMC7 | 0.93 | inactive
ARMC7 | 1.15 | inactive
ARMC7 | 1.61 | inactive
PDPN | 0.33 | inactive
PDPN | -0.56 | inactive
PDPN | 0.62 | inactive
PDPN | 1.74 | inactive
NOL10 | -0.38 | inactive
NOL10 | -0.39 | inactive
NOL10 | -1.06 | inactive
NOL10 | 0.72 | inactive
TGIF2 | 0.17 | inactive
TGIF2 | -0.34 | inactive
TGIF2 | -0.85 | inactive
TGIF2 | -1.02 | inactive
